Measurements published in the supplement of paper PMC10849652.
The list shows a part of the results.

Amino acid sequences for entries named in this document (tags omitted). A change or cut given only in a name is not applied to a line headed by its entry.
UniProt P51617, whole entry, looked up: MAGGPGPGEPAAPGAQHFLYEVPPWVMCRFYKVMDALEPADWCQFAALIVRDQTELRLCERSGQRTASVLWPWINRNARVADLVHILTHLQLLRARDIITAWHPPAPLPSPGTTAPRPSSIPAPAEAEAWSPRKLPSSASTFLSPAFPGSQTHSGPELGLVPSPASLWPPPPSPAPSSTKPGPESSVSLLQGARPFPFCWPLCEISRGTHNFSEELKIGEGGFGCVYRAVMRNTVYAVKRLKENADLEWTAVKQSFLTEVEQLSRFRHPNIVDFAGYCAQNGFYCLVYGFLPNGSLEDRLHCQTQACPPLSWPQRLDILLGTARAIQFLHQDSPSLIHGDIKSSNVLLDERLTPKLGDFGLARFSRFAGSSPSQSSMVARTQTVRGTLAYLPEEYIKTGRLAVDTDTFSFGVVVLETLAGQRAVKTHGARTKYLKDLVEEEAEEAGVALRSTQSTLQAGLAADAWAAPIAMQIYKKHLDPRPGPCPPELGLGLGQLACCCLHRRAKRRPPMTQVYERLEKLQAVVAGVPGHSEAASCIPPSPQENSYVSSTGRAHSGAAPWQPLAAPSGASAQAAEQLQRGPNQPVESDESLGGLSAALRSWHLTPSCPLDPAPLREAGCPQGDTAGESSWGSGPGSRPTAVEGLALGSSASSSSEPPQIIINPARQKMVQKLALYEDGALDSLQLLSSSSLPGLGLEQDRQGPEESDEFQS
UniProt Q9NVH2, whole entry, looked up: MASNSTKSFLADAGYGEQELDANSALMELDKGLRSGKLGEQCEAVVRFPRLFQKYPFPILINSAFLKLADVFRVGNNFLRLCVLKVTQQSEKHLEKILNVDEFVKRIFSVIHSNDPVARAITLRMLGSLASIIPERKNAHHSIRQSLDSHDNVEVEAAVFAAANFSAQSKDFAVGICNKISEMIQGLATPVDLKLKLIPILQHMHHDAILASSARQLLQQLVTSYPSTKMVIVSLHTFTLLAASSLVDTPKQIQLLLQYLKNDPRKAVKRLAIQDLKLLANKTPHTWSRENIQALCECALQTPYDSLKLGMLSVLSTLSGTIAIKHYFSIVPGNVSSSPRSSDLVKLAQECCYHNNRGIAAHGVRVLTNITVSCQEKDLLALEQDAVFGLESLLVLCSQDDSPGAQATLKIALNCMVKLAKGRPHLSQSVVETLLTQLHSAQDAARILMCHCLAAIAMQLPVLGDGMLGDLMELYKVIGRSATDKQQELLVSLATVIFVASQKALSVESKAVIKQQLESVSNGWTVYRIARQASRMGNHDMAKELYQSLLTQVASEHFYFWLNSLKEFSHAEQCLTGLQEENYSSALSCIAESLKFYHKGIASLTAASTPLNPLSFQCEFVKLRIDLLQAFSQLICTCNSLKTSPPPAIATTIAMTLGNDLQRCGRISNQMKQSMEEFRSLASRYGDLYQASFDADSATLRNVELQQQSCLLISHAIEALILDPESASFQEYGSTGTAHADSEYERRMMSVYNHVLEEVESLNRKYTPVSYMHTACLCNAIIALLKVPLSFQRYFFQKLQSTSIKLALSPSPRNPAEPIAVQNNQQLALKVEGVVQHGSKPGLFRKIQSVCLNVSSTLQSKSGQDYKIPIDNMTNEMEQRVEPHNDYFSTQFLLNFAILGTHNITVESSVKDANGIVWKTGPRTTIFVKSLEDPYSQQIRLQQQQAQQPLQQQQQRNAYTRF
UniProt P33947: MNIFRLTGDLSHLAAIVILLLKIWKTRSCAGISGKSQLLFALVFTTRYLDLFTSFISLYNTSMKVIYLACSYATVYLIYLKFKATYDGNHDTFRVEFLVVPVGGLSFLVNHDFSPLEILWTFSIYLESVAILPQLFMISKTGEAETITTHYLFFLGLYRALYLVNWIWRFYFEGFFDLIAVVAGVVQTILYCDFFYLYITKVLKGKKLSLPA
UniProt P24390: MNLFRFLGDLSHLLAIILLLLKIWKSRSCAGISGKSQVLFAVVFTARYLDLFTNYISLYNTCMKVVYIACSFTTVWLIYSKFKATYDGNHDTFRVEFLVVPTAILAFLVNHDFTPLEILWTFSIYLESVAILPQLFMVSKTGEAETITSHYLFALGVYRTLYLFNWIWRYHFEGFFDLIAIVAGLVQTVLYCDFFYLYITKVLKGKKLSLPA
UniProt Q9NWZ3, whole entry, looked up: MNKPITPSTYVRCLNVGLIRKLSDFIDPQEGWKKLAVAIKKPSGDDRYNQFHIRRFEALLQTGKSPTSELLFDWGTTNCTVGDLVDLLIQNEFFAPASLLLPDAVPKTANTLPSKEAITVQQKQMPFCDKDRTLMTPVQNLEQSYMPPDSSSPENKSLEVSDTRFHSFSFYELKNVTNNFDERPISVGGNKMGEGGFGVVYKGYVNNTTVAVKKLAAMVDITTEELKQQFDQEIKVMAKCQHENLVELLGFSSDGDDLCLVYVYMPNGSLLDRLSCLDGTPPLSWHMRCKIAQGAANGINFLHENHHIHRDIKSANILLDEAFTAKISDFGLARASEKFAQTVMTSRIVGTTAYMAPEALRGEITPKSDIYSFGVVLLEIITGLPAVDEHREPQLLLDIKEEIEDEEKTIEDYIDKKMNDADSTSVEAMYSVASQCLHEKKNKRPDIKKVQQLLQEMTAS
UniProt Q9H1B7, whole entry, looked up: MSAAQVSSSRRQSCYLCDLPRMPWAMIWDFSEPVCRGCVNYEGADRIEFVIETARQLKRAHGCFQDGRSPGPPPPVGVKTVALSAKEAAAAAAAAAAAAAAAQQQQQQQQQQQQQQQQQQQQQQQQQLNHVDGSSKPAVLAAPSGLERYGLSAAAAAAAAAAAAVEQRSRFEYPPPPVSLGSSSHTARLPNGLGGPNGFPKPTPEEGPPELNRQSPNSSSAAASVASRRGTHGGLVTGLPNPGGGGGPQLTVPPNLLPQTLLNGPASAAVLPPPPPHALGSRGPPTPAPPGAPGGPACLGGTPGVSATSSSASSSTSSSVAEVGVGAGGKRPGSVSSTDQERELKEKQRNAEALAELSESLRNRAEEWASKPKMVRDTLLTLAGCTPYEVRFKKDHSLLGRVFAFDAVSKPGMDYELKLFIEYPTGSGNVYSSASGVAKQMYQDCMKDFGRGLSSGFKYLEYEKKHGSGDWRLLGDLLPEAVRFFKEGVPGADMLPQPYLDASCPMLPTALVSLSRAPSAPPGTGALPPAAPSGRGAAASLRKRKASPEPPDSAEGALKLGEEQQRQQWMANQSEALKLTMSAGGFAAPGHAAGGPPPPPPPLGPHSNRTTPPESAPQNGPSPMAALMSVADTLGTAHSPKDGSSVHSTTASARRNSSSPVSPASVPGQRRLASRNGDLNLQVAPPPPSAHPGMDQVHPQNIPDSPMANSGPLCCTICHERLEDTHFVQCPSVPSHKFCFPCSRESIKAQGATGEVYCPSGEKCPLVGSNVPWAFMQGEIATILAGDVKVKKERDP
UniProt Q96DU7: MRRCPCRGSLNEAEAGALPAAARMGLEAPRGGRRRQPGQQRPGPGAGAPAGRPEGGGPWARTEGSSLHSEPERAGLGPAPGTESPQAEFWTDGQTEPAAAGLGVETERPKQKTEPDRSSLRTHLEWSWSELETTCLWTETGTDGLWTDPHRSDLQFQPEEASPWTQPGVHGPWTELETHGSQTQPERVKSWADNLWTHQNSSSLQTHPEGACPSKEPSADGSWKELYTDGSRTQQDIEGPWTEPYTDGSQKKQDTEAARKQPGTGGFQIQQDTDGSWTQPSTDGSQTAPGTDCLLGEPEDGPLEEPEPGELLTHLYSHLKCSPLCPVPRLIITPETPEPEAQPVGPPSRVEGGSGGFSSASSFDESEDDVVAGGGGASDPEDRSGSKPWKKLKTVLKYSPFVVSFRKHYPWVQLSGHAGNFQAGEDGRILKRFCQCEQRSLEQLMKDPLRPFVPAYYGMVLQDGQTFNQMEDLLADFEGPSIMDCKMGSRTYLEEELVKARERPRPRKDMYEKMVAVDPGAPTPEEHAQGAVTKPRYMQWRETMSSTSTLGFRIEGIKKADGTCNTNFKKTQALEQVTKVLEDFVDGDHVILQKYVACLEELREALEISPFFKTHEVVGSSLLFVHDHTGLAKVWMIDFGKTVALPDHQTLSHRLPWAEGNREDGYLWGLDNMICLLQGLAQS
UniProt Q674X7: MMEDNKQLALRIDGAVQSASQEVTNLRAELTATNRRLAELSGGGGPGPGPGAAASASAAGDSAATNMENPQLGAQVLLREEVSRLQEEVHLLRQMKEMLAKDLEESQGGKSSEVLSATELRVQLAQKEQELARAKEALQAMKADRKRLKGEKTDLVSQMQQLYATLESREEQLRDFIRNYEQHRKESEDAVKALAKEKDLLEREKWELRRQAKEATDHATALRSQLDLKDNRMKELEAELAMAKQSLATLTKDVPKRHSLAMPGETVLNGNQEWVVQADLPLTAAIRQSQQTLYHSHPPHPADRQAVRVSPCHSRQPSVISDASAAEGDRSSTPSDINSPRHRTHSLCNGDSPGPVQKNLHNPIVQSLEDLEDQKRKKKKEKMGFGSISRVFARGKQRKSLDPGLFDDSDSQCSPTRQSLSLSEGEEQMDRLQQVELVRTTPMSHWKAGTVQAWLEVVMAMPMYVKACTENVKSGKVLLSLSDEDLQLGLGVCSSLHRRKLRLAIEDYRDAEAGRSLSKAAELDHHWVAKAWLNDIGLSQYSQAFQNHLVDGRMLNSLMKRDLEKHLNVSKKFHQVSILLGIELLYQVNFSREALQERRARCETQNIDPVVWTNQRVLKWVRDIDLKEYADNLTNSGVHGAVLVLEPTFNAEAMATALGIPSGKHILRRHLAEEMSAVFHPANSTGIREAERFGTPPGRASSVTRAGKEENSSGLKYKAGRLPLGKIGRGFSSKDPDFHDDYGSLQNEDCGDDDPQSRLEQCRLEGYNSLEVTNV
UniProt O76095: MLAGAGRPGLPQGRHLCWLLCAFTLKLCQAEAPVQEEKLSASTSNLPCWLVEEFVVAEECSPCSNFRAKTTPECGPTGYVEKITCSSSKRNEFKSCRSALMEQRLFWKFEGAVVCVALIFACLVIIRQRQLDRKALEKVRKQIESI
UniProt Q15046, whole entry, looked up: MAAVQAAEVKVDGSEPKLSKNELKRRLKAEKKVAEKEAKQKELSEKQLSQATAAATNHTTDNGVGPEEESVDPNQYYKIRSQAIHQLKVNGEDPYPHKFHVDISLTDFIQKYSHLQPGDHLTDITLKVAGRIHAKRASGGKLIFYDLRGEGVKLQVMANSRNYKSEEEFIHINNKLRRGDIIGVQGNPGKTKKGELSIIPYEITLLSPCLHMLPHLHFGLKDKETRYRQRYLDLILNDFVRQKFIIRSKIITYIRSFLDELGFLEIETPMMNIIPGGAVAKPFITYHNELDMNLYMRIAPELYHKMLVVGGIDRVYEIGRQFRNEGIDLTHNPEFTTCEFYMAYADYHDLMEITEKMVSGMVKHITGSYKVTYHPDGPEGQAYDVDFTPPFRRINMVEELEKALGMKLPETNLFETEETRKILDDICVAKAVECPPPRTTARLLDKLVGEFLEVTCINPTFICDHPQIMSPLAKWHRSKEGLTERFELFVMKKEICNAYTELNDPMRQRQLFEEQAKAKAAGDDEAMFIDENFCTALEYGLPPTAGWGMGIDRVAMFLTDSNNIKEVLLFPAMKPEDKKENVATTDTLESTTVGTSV
UniProt Q68E01, whole entry, looked up: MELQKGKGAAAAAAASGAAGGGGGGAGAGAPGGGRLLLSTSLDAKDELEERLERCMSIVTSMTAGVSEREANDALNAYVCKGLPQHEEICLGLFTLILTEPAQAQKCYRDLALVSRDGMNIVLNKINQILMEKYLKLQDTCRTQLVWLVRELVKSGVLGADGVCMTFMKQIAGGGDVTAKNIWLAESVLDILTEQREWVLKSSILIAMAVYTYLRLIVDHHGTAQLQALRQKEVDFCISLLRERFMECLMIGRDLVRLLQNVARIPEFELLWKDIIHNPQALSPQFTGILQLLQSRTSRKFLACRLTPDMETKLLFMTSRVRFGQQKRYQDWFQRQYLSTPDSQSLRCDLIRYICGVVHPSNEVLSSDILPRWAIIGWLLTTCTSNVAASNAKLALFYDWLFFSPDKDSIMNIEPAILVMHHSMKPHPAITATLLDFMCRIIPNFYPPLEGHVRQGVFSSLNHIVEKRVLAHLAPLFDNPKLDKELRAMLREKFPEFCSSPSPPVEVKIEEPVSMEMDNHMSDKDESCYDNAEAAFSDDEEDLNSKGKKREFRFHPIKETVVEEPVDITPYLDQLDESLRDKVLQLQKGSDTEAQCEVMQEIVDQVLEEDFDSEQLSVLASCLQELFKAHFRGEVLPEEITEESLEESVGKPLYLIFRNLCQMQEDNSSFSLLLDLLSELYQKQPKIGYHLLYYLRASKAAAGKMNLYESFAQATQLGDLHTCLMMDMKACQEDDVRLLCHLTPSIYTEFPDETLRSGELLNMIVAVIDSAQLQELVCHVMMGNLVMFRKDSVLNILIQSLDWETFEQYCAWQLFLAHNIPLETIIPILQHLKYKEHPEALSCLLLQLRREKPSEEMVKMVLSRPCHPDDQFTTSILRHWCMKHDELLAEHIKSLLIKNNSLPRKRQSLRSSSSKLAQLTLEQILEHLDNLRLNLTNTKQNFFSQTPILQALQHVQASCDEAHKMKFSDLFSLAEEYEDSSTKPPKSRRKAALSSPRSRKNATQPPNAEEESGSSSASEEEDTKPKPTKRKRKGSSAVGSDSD

Experiments:
Test in all cases: log2 fold change, soluble protein after heating vs DMSO (PISA); higher = thermal stabilisation; K562 lysate, 10 uM; active = over 0.2 and 3.5 SD of the protein, either way, in both replicates (recomputed)
[1] = compound: NCC(=O)Nc1ccc(-n2nc(C(F)(F)F)cc2-c2ccc3c(ccc4ccccc43)c2)cc1
Method in brief: (§1)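 Following dounce homogenisation of K562 pellets in PBS pH 7.4 with 1 mM MgCl2, crude extract at 1 mg/mL protein was incubated for 30 min with 10 μM compound. Aliquots were then heated for 3 min over 48°C-58°C and pooled, NP-40 was added to 0.5% at 4°C, and soluble protein was recovered as the supernatant at 21,000xg for 90 min. Channel-sum-equalised TMTpro 16plex LC-MS/MS quantified this protein. Each value, from duplicates, is a log-two fold change in thermal stability relative to solvent controls.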

[2] = compound: O=C(CCCCCCC(=O)Nc1ccccc1)NO [vorinostat]
Method in brief: as §1

[3] = compound: O=C(O)c1ccc2c(c1)nc(Nc1cccc(Cl)c1)c1ccncc12 [silmitasertib]
Method in brief: as §1

[4] = compound: O=C1NC(=O)C(c2cnc3ccccn23)=C1c1cn2c3c(cc(F)cc13)CN(C(=O)N1CCCCC1)CC2
Method in brief: as §1

[5] = compound: c1cn2cc(-c3ccc4cn[nH]c4c3)nc(Nc3ccc(N4CCOCC4)cc3)c2n1 [entospletinib]
Method in brief: as §1

Target | log2 fold change [1] | log2 fold change [2] | log2 fold change [3] | log2 fold change [4] | log2 fold change [5]
IRF3 (UniProt Q14653) | inactive: 0.033 | inactive: -0.189 | inactive: 0.011 | inactive: 0.002 | inactive: 0.012
ITFG2 (UniProt H0YGR0) | inactive: 0.031 |  |  |  | 
KDF1 (UniProt Q8NAX2) | inactive: -0.059 | inactive: -0.122 | inactive: 0.064 | inactive: -0.081 | 
IRAK1 (UniProt P51617) | inactive: -0.073 | active: -0.359 | inactive: 0.205 | inactive: -0.014 | inactive: 0.232
INTS7 (UniProt Q9NVH2) | inactive: 0.017 | inactive: -0.149 | inactive: -0.011 | inactive: 0.189 | inactive: 0.03
KDELR2 (UniProt P33947) | inactive: 0.142 | inactive: -0.219 | inactive: -0.084 | inactive: 0.058 | inactive: 0.073
ITM2B (UniProt Q9Y287) | inactive: -0.101 | inactive: 0.141 | inactive: 0.013 | inactive: 0.004 | 
IQGAP1 (UniProt P46940) | inactive: -0.036 | inactive: -0.193 | inactive: 0.007 | inactive: -0.023 | inactive: 0.014
KDM1A (UniProt O60341) | inactive: 0.01 | inactive: -0.163 | inactive: 0.009 | inactive: -0.009 | inactive: 0.01
IPO8 (UniProt O15397) | inactive: 0.025 | inactive: -0.126 | inactive: 0.027 | inactive: 0.018 | inactive: 0.026
KDELR1 (UniProt P24390) | inactive: -0.026 | inactive: -0.005 | inactive: 0.093 | inactive: -0.03 | inactive: -0.113
IRAK4 (UniProt Q9NWZ3) | inactive: -0.031 | inactive: -0.218 | inactive: 0.055 | inactive: -0.106 | inactive: 0.042
INTS8 (UniProt Q75QN2) | inactive: -0.012 | active: -0.401 | inactive: 0.071 | inactive: -0.016 | inactive: 0.054
IPO9 (UniProt Q96P70) | inactive: 0.016 | inactive: -0.017 | inactive: 0.002 | inactive: -0.015 | inactive: 0.036
IWS1 (UniProt Q96ST2) | inactive: 0.008 | inactive: -0.005 | inactive: -0.034 | inactive: -0.022 | inactive: -0.014
IRF2BPL (UniProt Q9H1B7) | inactive: -0.018 | active: -0.324 | inactive: 0.02 | inactive: 0.006 | inactive: -0.065
INTS4 (UniProt Q96HW7) | inactive: 0.004 | inactive: 0.121 | inactive: -0.011 | inactive: 0.041 | inactive: 0.035
KCMF1 (UniProt Q9P0J7) | inactive: 0.031 | inactive: 0.05 | inactive: -0.097 | inactive: 0.002 | inactive: 0.015
IRF2BP1 (UniProt Q8IU81) | inactive: 0.021 | active: -0.4 | inactive: -0.003 | inactive: -0.03 | inactive: 0.01
ITPKC (UniProt Q96DU7) | inactive: -0.055 | inactive: -0.148 | inactive: -0.089 | inactive: 0.107 | inactive: -0.078
IVNS1ABP (UniProt Q9Y6Y0) | inactive: -0.016 | inactive: -0.049 | inactive: 0.011 | inactive: -0.048 | inactive: 0.068
KAZN (UniProt Q674X7) | inactive: -0.077 | inactive: 0.074 | inactive: -0.006 | inactive: 0.028 | inactive: 0.022
JTB (UniProt O76095) | inactive: -0.173 | inactive: 0.12 | inactive: 0.081 | inactive: -0.033 | inactive: -0.037
KARS1 (UniProt Q15046) | inactive: 0.021 | inactive: -0.011 | inactive: 0.022 | inactive: -0.026 | inactive: 0.006
ISG15 (UniProt P05161) | inactive: -0.076 | inactive: 0.119 | inactive: 0.006 | inactive: -0.046 | inactive: 0.023
ITPK1 (UniProt Q13572) | inactive: -0.019 | inactive: 0.055 | inactive: -0.081 | inactive: 0.028 | inactive: 0.037
INTS3 (UniProt Q68E01) | inactive: 0.049 | active: -0.244 | inactive: 0.015 | inactive: -0.063 | inactive: 0.009

Given tab-delimited: part of the list above.
Target	log2 fold change [1]	log2 fold change [2]	log2 fold change [3]	log2 fold change [4]	log2 fold change [5]
KDELR2 (UniProt P33947)	inactive: 0.142	inactive: -0.219	inactive: -0.084	inactive: 0.058	inactive: 0.073
ITM2B (UniProt Q9Y287)	inactive: -0.101	inactive: 0.141	inactive: 0.013	inactive: 0.004	
